Test results reported in publication PMC5097431.
These are yes or no findings as the source states them, for the method shown. Binding seen in cells or lysates may run through a third protein. Some entries that bind do so weakly or less than the wild type.

Sequences of proteins named here, by UniProt entry; tags and fusion partners are left off. A change or cut given only in a name is not applied to a line headed by its entry.
UniProt Q96L91: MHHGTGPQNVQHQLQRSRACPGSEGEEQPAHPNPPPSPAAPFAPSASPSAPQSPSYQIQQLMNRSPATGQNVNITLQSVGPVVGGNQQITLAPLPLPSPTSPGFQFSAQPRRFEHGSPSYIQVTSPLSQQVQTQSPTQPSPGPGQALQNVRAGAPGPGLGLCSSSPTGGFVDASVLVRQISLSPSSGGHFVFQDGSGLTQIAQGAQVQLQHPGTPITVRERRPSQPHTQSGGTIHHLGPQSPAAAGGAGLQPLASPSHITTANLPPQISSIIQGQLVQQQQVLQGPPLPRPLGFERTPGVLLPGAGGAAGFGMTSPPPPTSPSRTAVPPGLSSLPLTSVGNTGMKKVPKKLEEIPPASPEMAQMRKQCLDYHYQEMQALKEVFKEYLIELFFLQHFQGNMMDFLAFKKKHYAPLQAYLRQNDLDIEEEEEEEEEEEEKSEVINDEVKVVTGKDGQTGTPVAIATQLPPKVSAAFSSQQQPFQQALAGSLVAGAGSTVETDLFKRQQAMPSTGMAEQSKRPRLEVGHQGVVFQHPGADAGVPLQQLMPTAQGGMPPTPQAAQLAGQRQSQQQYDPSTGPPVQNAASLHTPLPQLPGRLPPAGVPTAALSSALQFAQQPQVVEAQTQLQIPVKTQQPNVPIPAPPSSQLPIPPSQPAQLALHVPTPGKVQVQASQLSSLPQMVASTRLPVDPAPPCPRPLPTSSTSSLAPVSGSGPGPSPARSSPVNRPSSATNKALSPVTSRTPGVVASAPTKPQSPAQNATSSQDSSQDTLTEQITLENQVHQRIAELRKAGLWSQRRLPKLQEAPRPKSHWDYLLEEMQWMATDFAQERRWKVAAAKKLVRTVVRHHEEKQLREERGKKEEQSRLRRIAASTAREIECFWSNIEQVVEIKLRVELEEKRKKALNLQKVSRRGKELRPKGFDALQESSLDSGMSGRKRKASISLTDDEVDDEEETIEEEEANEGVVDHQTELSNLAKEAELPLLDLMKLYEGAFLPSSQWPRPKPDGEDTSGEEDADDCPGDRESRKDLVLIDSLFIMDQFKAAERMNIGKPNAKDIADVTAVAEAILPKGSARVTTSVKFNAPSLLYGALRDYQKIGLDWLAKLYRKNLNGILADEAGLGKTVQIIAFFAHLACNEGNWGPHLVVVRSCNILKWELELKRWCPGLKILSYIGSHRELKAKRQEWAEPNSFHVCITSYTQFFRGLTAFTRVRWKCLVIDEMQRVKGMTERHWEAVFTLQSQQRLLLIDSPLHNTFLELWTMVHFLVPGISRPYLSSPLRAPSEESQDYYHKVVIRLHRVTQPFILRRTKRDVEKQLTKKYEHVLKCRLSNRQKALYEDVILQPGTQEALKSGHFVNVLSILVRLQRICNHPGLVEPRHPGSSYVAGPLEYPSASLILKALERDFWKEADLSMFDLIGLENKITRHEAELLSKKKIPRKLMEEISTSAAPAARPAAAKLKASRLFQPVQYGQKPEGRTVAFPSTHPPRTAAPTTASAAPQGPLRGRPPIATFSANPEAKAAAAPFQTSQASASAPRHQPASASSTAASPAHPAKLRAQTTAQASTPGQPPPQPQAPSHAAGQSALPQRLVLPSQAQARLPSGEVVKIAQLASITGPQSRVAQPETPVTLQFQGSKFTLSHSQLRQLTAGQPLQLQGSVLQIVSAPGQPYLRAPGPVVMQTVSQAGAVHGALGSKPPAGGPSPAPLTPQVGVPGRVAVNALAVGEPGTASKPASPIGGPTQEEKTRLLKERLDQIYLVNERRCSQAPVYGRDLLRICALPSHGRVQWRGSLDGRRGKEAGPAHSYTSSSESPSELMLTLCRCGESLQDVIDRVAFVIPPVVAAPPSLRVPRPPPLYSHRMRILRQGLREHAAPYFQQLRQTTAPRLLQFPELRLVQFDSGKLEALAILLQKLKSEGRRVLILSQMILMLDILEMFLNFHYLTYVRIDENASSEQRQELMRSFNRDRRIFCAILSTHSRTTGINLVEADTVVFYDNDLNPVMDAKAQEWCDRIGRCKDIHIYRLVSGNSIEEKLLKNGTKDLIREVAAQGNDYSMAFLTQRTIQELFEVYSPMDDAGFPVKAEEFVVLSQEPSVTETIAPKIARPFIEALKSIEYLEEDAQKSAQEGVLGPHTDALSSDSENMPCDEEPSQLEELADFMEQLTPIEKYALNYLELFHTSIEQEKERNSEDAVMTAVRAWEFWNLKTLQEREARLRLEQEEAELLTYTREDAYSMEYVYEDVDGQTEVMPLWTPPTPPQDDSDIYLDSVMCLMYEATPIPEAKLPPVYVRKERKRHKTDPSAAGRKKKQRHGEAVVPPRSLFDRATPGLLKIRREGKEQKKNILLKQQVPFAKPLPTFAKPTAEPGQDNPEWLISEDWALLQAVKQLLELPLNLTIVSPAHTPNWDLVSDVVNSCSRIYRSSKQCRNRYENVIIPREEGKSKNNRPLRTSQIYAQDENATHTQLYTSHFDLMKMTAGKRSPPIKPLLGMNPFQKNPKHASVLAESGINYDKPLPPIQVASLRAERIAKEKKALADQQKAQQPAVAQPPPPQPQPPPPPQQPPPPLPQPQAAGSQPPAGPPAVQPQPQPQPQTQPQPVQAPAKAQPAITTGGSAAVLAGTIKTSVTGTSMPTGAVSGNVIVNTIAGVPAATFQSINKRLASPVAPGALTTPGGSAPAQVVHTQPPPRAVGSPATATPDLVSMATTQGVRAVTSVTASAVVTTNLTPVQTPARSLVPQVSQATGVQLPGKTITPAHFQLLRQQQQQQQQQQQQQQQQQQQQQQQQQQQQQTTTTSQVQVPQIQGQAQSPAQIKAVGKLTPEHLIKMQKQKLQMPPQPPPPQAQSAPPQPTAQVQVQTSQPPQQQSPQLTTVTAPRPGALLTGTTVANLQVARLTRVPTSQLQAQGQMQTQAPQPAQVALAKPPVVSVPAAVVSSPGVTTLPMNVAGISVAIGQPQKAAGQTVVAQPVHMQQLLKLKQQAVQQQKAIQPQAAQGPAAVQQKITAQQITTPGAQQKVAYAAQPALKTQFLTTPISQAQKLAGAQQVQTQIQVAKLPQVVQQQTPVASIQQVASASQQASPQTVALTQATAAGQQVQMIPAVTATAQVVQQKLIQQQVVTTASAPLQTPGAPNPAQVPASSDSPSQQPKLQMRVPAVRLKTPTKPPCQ
UniProt Q92993: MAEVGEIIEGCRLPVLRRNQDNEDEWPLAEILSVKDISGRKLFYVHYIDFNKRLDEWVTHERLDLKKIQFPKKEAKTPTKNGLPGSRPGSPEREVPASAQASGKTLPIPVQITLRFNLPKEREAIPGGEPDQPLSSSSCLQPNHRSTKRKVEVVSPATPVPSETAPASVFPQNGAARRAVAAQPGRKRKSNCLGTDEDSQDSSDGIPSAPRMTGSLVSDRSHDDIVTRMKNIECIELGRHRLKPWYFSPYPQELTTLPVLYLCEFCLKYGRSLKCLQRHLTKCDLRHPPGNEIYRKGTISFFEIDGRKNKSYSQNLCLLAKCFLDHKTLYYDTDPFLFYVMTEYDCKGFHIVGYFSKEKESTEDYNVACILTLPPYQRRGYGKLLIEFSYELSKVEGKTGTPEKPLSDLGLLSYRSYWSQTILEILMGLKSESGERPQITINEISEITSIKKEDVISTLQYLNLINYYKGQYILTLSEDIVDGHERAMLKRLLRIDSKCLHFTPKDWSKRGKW

Legend:
[1] = target: HA-p400 (p400 ATPase), expressed in HEK293T cells (UniProt Q96L91); assay: co-IP; HEK293T cells (control, stably expressing Flag-F1, or transiently expressing F2 or F3) transiently expressing HA-p400; lysates pre-cleared with protein A/G beads for 3 h, precipitated with anti-HA antibody-conjugated beads; immunoblot for endogenous ATM, endogenous TRRAP and Flag (Fig. 5a, 5b)
[2] = target: Flag-ATM, expressed in baculovirus-infected Sf9 cells (UniProt Q13315); assay: co-IP; baculovirus-infected Sf9 cells, whole cell extract at 48 h post-infection, reciprocal precipitation with anti-Flag M2 agarose; immunoblot (Fig. 2c)

Substance | binding [1] | binding [2]
Flag-F1, N-terminal fragment 1 (1–719) of p400 (from UniProt Q96L91 1-719) (domain or fragment) | no binding | 
HA-TIP60, expressed in baculovirus-infected Sf9 cells (from UniProt Q92993 1-513) |  | binds
HA-p400, expressed in baculovirus-infected Sf9 cells (from UniProt Q96L91 1-3159) |  | binds
endogenous TRRAP of HEK293T cells (from UniProt Q9Y4A5 1-3859) | binds | 
